# Data reported in the supplement of paper PMC3682954.
# Where a name gives a salt, the structure may show the parent alone. ± gives the standard deviation of the averaged measurements. Some of the results follow. Most values come without repeats; read them as rough.
# Test system: RAW 264.7
# Assay: HMGB1-induced TNF-alpha production relative to HMGB1-stimulated control; higher = more TNF-alpha secretion (less inhibition)
# Details: stimulus: HMGB1 5 ug/ml, 18 h
# [1] = compound concentration: 1 ug/ml
Compound,HMGB1-induced TNF-alpha production (compound concentration: 3 uM) [%],HMGB1-induced TNF-alpha production [1] [%]
COc1cc2c(cc1OC)[C@@]13CCN4CC5=CCO[C@H]6CC(=O)N2[C@H]1[C@H]6[C@H]5C[C@H]43 [Brucine],98.4,
COc1cc2c(cc1OC)[C@@]13CCN4CC5=CCO[C@H]6CC(=O)N2[C@H]1[C@H]6[C@H]5C[C@H]43,77.4 ± 8.7,
COc1cc2c(cc1OC)[C@H](C)NCC2 [Salsolidine],,62.3
O=C(NC(=O)c1c(F)cccc1F)Nc1cc(Cl)c(OC(F)(F)C(F)C(F)(F)F)cc1Cl (centres undefined),67.6,
NNC(N)=O [Semicarbazide hydrochloride],117,
O=C[C@H](Cl)[C@@H](O)[C@H](O)[C@H](O)CO [2-Chloro-2-deoxy-D-glucose],78.4,
CCC(N)C(O)c1ccc(O)c(O)c1 (centres undefined),22,
CCCN(CCC)C1CCc2ccc(O)cc2C1 (stereo not drawn) [R-(+)-7-Hydroxy-DPAT hydrobromide],86.1,
c1ccc(C2(c3ccccc3)CC2C2=NCCN2)cc1 (centres undefined) [Cibenzoline succinate],98.7,
C/C=C1\C[C@@H](C)[C@](O)(CO)C(=O)OCC2=CCN3CC[C@@H](OC1=O)[C@@H]23 [Retrorsine],,67.1
C[C@H]1CCC[C@H](O)CCCCCc2cc(O)cc(O)c2C(=O)O1,95.7,
COc1ccc(CCN2CCC(Nc3nc4ccccc4n3Cc3ccc(F)cc3)CC2)cc1,80.5,
COc1ccc(CCN2CCC(Nc3nc4ccccc4n3Cc3ccc(F)cc3)CC2)cc1 [Astemizole],98.4 ± 16,
CC(=O)O[C@H]1C[C@H](O[C@H]2[C@@H](O)C[C@H](O[C@H]3[C@@H](O)C[C@H](O[C@H]4CC[C@@]5(C)[C@H](CC[C@@H]6[C@@H]5C[C@@H](O)[C@]5(C)[C@@H](C7=CC(=O)OC7)CC[C@]65O)C4)O[C@@H]3C)O[C@@H]2C)O[C@H](C)[C@H]1O[C@@H]1O[C@H](CO)[C@@H](O)[C@H](O)[C@H]1O [Lanatoside C],67.2,
CC(=O)O[C@H]1C[C@H](O[C@H]2[C@@H](O)C[C@H](O[C@H]3[C@@H](O)C[C@H](O[C@H]4CC[C@@]5(C)[C@H](CC[C@@H]6[C@@H]5C[C@@H](O)[C@]5(C)[C@@H](C7=CC(=O)OC7)CC[C@]65O)C4)O[C@@H]3C)O[C@@H]2C)O[C@H](C)[C@H]1O[C@@H]1O[C@H](CO)[C@@H](O)[C@H](O)[C@H]1O [lanatoside C],,70
CC(=O)O[C@H]1C[C@H](O[C@H]2[C@@H](O)C[C@H](O[C@H]3[C@@H](O)C[C@H](O[C@H]4CC[C@@]5(C)[C@H](CC[C@@H]6[C@@H]5C[C@@H](O)[C@]5(C)[C@@H](C7=CC(=O)OC7)CC[C@]65O)C4)O[C@@H]3C)O[C@@H]2C)O[C@H](C)[C@H]1O[C@@H]1O[C@H](CO)[C@@H](O)[C@H](O)[C@H]1O,88.4,
CN1C[C@H](CO)C=C2c3cccc4[nH]cc(c34)C[C@H]21 [Lysergol],,63.3
CC(N)Cc1c[nH]c2ccc(O)cc12 (stereo not drawn) [alpha-Methyl-5-hydroxytryptamine maleate],111,
CN(N=O)c1cc(O)ccc1O [Dephostatin],69.1,
CCN(CC)C(C)C(=O)c1ccccc1 (centres undefined) [Amfepramone hydrochloride],62.8,
O[C@@H]1CCCC[C@H]1N1CCC(c2ccccc2)CC1 [L(-)-vesamicol hydrochloride],114,
O=C1CCCN1CC#CCN1CCCC1 [Oxotremorine sesquifumarate salt],106,
O=C1CCCN1CC#CCN1CCCC1 [Oxotremorine],98,
C[C@]12N[C@H](Cc3ccccc31)c1ccccc12 [Dizocilpine maleate],76.7,

Compound,HMGB1-induced TNF-alpha production (compound concentration: 3 uM) [%],HMGB1-induced TNF-alpha production [1] [%]
C[N+]1([O-])[C@@H]2C[C@@H](OC(=O)[C@H](CO)c3ccccc3)C[C@H]1[C@@H]1O[C@@H]12 (some centres undefined) [Scopolamin-N-oxide hydrobromide],109,
NCCc1ccccn1,108,
CC1(C)C(C=C(Cl)Cl)C1C(=O)OC(C#N)c1cccc(Oc2ccccc2)c1 (centres undefined),60.7,
Oc1cc(Cl)ccc1Oc1ccc(Cl)cc1Cl [Triclosan],86,
Oc1cc(Cl)ccc1Oc1ccc(Cl)cc1Cl,61.7,
c1cncc([C@@H]2CCCN2)c1 [Nornicotine],110,
C[C@@]12N[C@@H](Cc3ccccc31)c1ccccc12 [(-)-MK 801 hydrogen maleate],108,
C[C@@]12N[C@@H](Cc3ccccc31)c1ccccc12 [(-)-MK-801 hydrogen maleate],110,
CC(CC(C(N)=O)(c1ccccc1)c1ccccc1)N(C)C (centres undefined),101,
C[C@]12CC[C@H]3[C@@H](CCC4=CC(=O)CC[C@@]43C)[C@@H]1CC[C@H]2O [Epitestosterone],,70.3
C#CCN[C@H](C)Cc1ccccc1 [R-(-)-Desmethyldeprenyl hydrochloride],102,
CCCN(CCC)[C@@H]1CCc2cccc(O)c2C1 [R-(+)-8-Hydroxy-DPAT hydrobromide],97.6,
OC[C@@H](O)[C@H]1O[C@@H]2O[C@H](C(Cl)(Cl)Cl)O[C@@H]2[C@H]1O,82.5,
C[N+]12CCC(CC1)C(OC(=O)C(O)(c1ccccc1)c1ccccc1)C2 (centres undefined) [Clidinium bromide],122,
C[N+]12CCC(CC1)C(OC(=O)C(O)(c1ccccc1)c1ccccc1)C2 (centres undefined),88,
CN1C(=O)CN=C(c2ccccc2)c2cc([N+](=O)[O-])ccc21 [Nimetazepam],109,
"CCCN1CCc2cc(O)cc3c2[C@H]1Cc1ccc(O)c(O)c1-3 [R(-)-2,10,11-Trihydroxy-N-propylnoraporphine hydrobromide]",87.5,
C=C(C)[C@@H]1[C@H]2OC(=O)[C@@H]1[C@]1(O)C[C@H]3OC34C(=O)O[C@H]2[C@@]41C.CC(C)(O)[C@@H]1[C@H]2OC(=O)[C@@H]1[C@]1(O)C[C@H]3OC34C(=O)O[C@H]2[C@@]41C (some centres undefined) [Picrotoxin],111,
"CC(=O)OCC1=C(C(=O)O)N2C(=O)[C@@H](N)[C@H]2SC1 [Cephalosporanic acid, 7-amino]",68.4,
C/C=C(/C)C(=O)O[C@H]1CC[C@@]2(C)[C@@H]3CC[C@H]4[C@]5(O)C[C@H](O)[C@@]6(O)[C@@H](CN7C[C@@H](C)CC[C@H]7[C@@]6(C)O)[C@]5(O)C[C@]42O[C@]13O,89.6,
"CO[C@]12C[C@@H](COC(=O)c3cncc(Br)c3)CN(C)[C@@H]1Cc1cn(C)c3cccc2c13 [Nicergoline,]",,84.4
CO[C@]12C[C@@H](COC(=O)c3cncc(Br)c3)CN(C)[C@@H]1Cc1cn(C)c3cccc2c13 [Nicergoline],77.9 ± 26,
CO[C@]12C[C@@H](COC(=O)c3cncc(Br)c3)CN(C)[C@@H]1Cc1cn(C)c3cccc2c13,103,
C[C@H]1C(=O)O[C@@H]2CCN3CC=C(COC(=O)[C@](C)(O)[C@]1(C)O)[C@H]23 [Monocrotaline],,71.2

# Another view of part of the listing above:
Compound	HMGB1-induced TNF-alpha production (compound concentration: 3 uM) [%]	HMGB1-induced TNF-alpha production [1] [%]
CN1C[C@H](CO)C=C2c3cccc4[nH]cc(c34)C[C@H]21 [Lysergol]		63.3
CC(N)Cc1c[nH]c2ccc(O)cc12 (stereo not drawn) [alpha-Methyl-5-hydroxytryptamine maleate]	111	

# Additional results

Compound,HMGB1-induced TNF-alpha production (compound concentration: 3 uM) [%],HMGB1-induced TNF-alpha production [1] [%]
COC(=O)C(c1ccccc1)C1CCCCN1 (centres undefined),79,
O=CN1CCCC[C@@H]1[C@@H]1CC[C@@H]2CCCCN2C1 [Leontiformine HBr],,73.2
CC1(C(=O)O)C2CCC(O2)C1(C)C(=O)O (centres undefined) [Cantharidic Acid],177,
CC(C)(C)NCC(O)c1ccccc1Cl (centres undefined),35.4,
CC(C)(C)NCC(O)c1ccccc1Cl (centres undefined) [Tulobuterol],64.7 ± 7.6,
CC(C)(C)NCC(O)c1ccccc1Cl (centres undefined) [Tulobuterol hydrochloride],60.8,
CN(C)C(=S)SSC(=S)N(C)C,79.3,
CC(C)C[C@H](CN)CC(=O)O,89.7,
C[C@]12Cc3c[nH]nc3C[C@@H]1CC[C@@H]1[C@@H]2CC[C@@]2(C)[C@H]1CC[C@]2(C)O [Stanozolol],82.3 ± 18,
C[C@@H]1CC[C@H]2[C@@H](C)C(=O)O[C@@H]3O[C@@]4(C)CC[C@@H]1[C@]32OO4 [Artemisinin],78.7 ± 28,76
C[C@@H]1CC[C@H]2[C@@H](C)C(=O)O[C@@H]3O[C@@]4(C)CC[C@@H]1[C@]32OO4,69.6,
CC[C@H]1[C@@H]2C[C@H]3[C@@H]4N(C)c5ccccc5[C@]45C[C@@H]([C@@H]2[C@H]5O)N3[C@@H]1O,79.1,
CS(=N)(=O)CC[C@H](N)C(=O)O (stereo partly drawn) [L-Methionine sulfoximine],100,
CCC1(c2cccc(O)c2)CCCCN(C)C1 (centres undefined) [Meptazinol hydrochloride],90,
Cc1ccc(O)cc1.Cc1cccc(O)c1.Cc1ccccc1O,78.2,
CCNC1(c2cccs2)CCCCC1=O (centres undefined) [Tiletamine hydrochloride],99.6,
COc1cc([C@@H]2c3cc4c(cc3[C@H](O)[C@H]3COC(=O)[C@H]23)OCO4)cc(OC)c1OC [Podophyllotoxin],119 ± 42,188
COc1cc([C@@H]2c3cc4c(cc3[C@H](O)[C@H]3COC(=O)[C@H]23)OCO4)cc(OC)c1OC,171,
CNC(C)C(O)c1ccccc1 (centres undefined),85.4,
CC(C)(C)C(=O)C(Oc1ccc(Cl)cc1)n1cncn1 (centres undefined),96.9,
CC[C@H]1CN2CCc3cc(OC)c(OC)cc3[C@@H]2C[C@@H]1C[C@H]1NCCc2cc(OC)c(OC)cc21 [Emetine dihydrochloride hydrate],-1.73,
CC[C@H]1CN2CCc3cc(OC)c(OC)cc3[C@@H]2C[C@@H]1C[C@H]1NCCc2cc(OC)c(OC)cc21 [(+)-Emetine dihydrochloride hydrate],,-2.05
CC[C@H]1CN2CCc3cc(OC)c(OC)cc3[C@@H]2C[C@@H]1C[C@H]1NCCc2cc(OC)c(OC)cc21,10.8 ± 14,
C[C@]12CC[C@H](O)CC1=CC[C@@H]1[C@@H]2CC[C@@]2(C)[C@H]1CC[C@]2(C)O,102,

# Random excerpt: two entries already listed
Compound,HMGB1-induced TNF-alpha production (compound concentration: 3 uM) [%],HMGB1-induced TNF-alpha production [1] [%]
CC(C)(C)C(=O)C(Oc1ccc(Cl)cc1)n1cncn1 (centres undefined),96.9,
CC(C)C[C@H](CN)CC(=O)O,89.7,
